Test results reported in US6358921B1, “Antimicrobial peptide compositions and method” (priority 1996, dated 2002).
Read-outs that look alike come from different tables or passages of the source. Where a SMILES comes first, the peptide text is derived from it. [ ]: non-standard residue; d: D form. Orn = NCCC[C@H](N)C(=O)O

Columns and labels:
[1] = test system: P. aeruginosa H187; type: cell-based, Pseudomonas aeruginosa
Description: (§1) The following bacterial strains were utilized: Escherichia coli UB1005 (wt) and its antibiotic supersusceptible derivative DC2 (Clark, 1984); Excherichia coli SC9251 and its polymixin B rasistant mutant pmrA SC9252 (Peterson, et al., 1987) Pseudomonas aeruginosa H187 (wt) (Angus, et al., 1987) and its antibiotic-sensitive derivative H188 (Zimmerman, W, Antimicrob. Agents Chemother. 18: 94-100, 1980); methicillin sensitive Staphylococcus aureus K147 (Kreiswirth, et al., 1983); Staphylococcus aureus SAP0017, a methicillin resistant clinical isolate from Dr. A. Chow (University of British Columia); Bacillus subtilis, an environmental wt lab strain. Enterococcus faecalis are ATCC 29212 cells and Staphylococcus epidermidis was a clinical isolate from Dr. D. Speert (University of British Columbia). Antifungal activity was tested using a clinical lab isolate of Candida albicans. Salmonella typhinurium C57 and C610 (Fields, P.I., et al., Science 243: 1059-1062 (1989) Corynebacterium xerosis was an environmental isolate (University of British Columbia).
(§2) It is now apparent that agar-based assays severely underestimate antifungal activity as well as activity against gram negative microorganisms (Kondejewski, et al., 1996). Consequently, in the studies reported herein, a liquid-broth method was used to measure the antibiotic properties of the peptides. […] Briefly, cells were grown overnight at 37° C. in LB and diluted in the same medium. Serial dilutions of antibiotics were added to the microtitre plates in a volume of 100 μL followed by 10 μL of bacteria to give a final inoculum of 5×10^5 CFU/mL. Plates were incubated at 37° C. overnight and MICs determined as the lowest antibiotic concentration that inhibited growth.
(§3) The results from antimicrobial and hemolytic assays are combined to provide a “Therapeutic Index” (TI) for each peptide with respect to individual microorganisms. As reported herein, the TI is calculated as the hemolytic activity divided by the antimicrobial activity. The TI thus is a measure of specificity of the particular peptide for microbial membranes as opposed to human blood cell membranes. In the present studies, antimicrobial activities are reported as minimum inhibitory concentrations (MIC)—the lowest concentration of peptide (μg/ml) found to inhibit growth of the particular microbe. Hemolytic activity is reported as the concentration of peptide that effected complete lysis of blood cells after four hours. Thus, in the context of the present invention high TI values indicate microbial specificity and relative lack of toxicity.

[2] = test system: B. subtilis; type: cell-based, Bacillus subtilis
Description: as §1
as §2, with “growth. […]” for “growth.”

[3] = test system: S. epidermidis; type: cell-based, Staphylococcus epidermidis
Description: as §1
as §2, with “growth. […]” for “growth.”

[4] = test system: E. coli UB1005; type: cell-based, Escherichia coli
Description: as §1
as §2, with “growth. […]” for “growth.”

[5] = test system: C. Albicans; type: cell-based, Candida albicans
Description: as §1
as §2, with “growth. […]” for “growth.”

[6] = test system: C. xeroses; type: cell-based, Corynebacterium xerosis
Description: as §1
as §2, with “growth. […]” for “growth.”

[7] = test system: E. faecalis; type: cell-based, Enterococcus faecalis
Description: as §1
as §2, with “growth. […]” for “growth.”

[8] = test system: E. coli DC2; type: cell-based, Escherichia coli
Description: as §1, §2, §3

[9] = test system: S. aureus K147; type: cell-based, Staphylococcus aureus
Description: as §1, §2, §3

[10] = test system: S. aureus SAP0017; type: cell-based, Staphylococcus aureus
Description: as §1, §2, §3

[11] = test system: S. typhinurium C587; type: cell-based, Salmonella typhinurium
Description: as §1
as §2, with “growth. […]” for “growth.”

[12] = test system: S. typhinurium C610; type: cell-based, Salmonella typhinurium
Description: as §1
as §2, with “growth. […]” for “growth.”

[13] = test system: P. aeruginosa H188; type: cell-based, Pseudomonas aeruginosa
Description: as §1
as §2, with “growth. […]” for “growth.”

| SMILES | Therapeutic Index = hemolytic activity/antibacterial activity [1] | Therapeutic Index = hemolytic activity/antibacterial activity [2] | Therapeutic Index = hemolytic activity/antibacterial activity [3] | Therapeutic Index = hemolytic activity/antibacterial activity [4] | Therapeutic Index = hemolytic activity/antibacterial activity [5] | Therapeutic Index = hemolytic activity/antibacterial activity [6] | Therapeutic Index = hemolytic activity/antibacterial activity [7] | Therapeutic Index = hemolytic activity/antibacterial activity [8] | Therapeutic Index = hemolytic activity/antibacterial activity [9] | Therapeutic Index = hemolytic activity/antibacterial activity [10] | Therapeutic Index = hemolytic activity/antibacterial activity [11] | Therapeutic Index = hemolytic activity/antibacterial activity [12] | Therapeutic Index = hemolytic activity/antibacterial activity [13] | further results |
| --- | --- | --- | --- | --- | --- | --- | --- | --- | --- | --- | --- | --- | --- | --- |
| CC(C)C[C@@H]1NC(=O)[C@H](CCCCN)NC(=O)[C@H](C(C)C)NC(=O)[C@H](CCCCN)NC(=O)[C@@H]2CCCN2C(=O)[C@@H](Cc2ccc(O)cc2)NC(=O)[C@H](CCCCN)NC(=O)[C@H](CC(C)C)NC(=O)[C@H](CCCCN)NC(=O)[C@H](C(C)C)NC(=O)[C@@H](CCCCN)NC(=O)[C@@H]2CCCN2C(=O)[C@@H](Cc2ccc(O)cc2)NC(=O)[C@H](CCCCN)NC1=O [GS14invK1] | 130 | <8 | 16 | 65 | 8 | 260 | <8 | 65 | <8 | <8 | 11 | 260 | 180 |  |
| CC(C)C[C@@H]1NC(=O)[C@H](CCCCN)NC(=O)[C@H](C(C)C)NC(=O)[C@H](CCCCN)NC(=O)[C@@H]2CCCN2C(=O)[C@@H](Cc2ccc(O)cc2)NC(=O)[C@H](CCCCN)NC(=O)[C@H](CC(C)C)NC(=O)[C@H](CCCCN)NC(=O)[C@H](C(C)C)NC(=O)[C@H](CCCCN)NC(=O)[C@@H]2CCCN2C(=O)[C@@H](Cc2ccc(O)cc2)NC(=O)[C@H](CCCCN)NC1=O [GS14inv] | 130 | <8 | 64 | 130 | 64 | 2000 | 8 | 2000 | <8 | 8 | 32 | 520 | 260 | Increase in specificity (therapeutic index) relative to GS14 ([6]; C. xeroses): 10,000 fold; Increase in therapeutic index (specificity) compared to GS14 ([8]; E. coli DC2): greater than 200,000 fold |
| CC(C)C[C@@H]1NC(=O)[C@H](CCCCN)NC(=O)[C@H](C(C)C)NC(=O)[C@@H]2CCCN2C(=O)[C@@H](Cc2ccc(O)cc2)NC(=O)[C@H](CCCCN)NC(=O)[C@H](CC(C)C)NC(=O)[C@H](C(C)C)NC(=O)[C@H](CCCCN)NC(=O)[C@H](CC(C)C)NC(=O)[C@@H]2CCCN2C(=O)[C@@H](Cc2ccc(O)cc2)NC(=O)[C@H](CCCCN)NC(=O)[C@H](C(C)C)NC1=O [GS14na] |  |  |  |  |  |  |  |  |  | 8 |  |  |  |  |
| CC(C)C[C@@H]1NC(=O)[C@H](C(C)C)NC(=O)[C@H](CC(C)C)NC(=O)[C@@H]2CCCN2C(=O)[C@@H](Cc2ccc(O)cc2)NC(=O)[C@H](C(C)C)NC(=O)[C@H](CC(C)C)NC(=O)[C@H](C(C)C)NC(=O)[C@H](CCCCN)NC(=O)[C@H](CCCCN)NC(=O)[C@@H]2CCCN2C(=O)[C@@H](Cc2ccc(O)cc2)NC(=O)[C@H](CCCCN)NC(=O)[C@H](CCCCN)NC1=O [GS14napol] | 16 | <4 | 32 | 45 | 22 | 1300 | 11 |  | <5 | 4 | 16 | 32 | 90 | Therapeutic Index = hemolytic activity/antibacterial activity ([8]; E. coli DC2, 400 μg/ml used for MIC >200 μg/ml, 1600 μg/ml for hemolytic activity >800 μg/ml): 200 |
| CC(C)C[C@@H]1NC(=O)[C@H](CCCN)NC(=O)[C@H](C(C)C)NC(=O)[C@@H]2CCCN2C(=O)[C@@H](Cc2ccccc2)NC(=O)[C@H](CC(C)C)NC(=O)[C@H](CCCN)NC(=O)[C@H](C(C)C)NC(=O)[C@@H]2CCCN2C(=O)[C@@H](Cc2ccccc2)NC1=O [GS, cyclo(Val-Orn-Leu-D-Phe-Pro)2, reference compound] (cyclo(V[Orn]L[dF]PV[Orn]L[dF]P)) |  | <0.01 | 0.01 |  | 0.01 | 0.2 | 1 |  | <0.01 | <0.01 |  |  |  | Therapeutic Index = hemolytic activity/antibacterial activity ([1]; P. aeruginosa H187, Table 2): 0.5; Therapeutic Index = hemolytic activity/antibacterial activity ([2]; B. subtilis, Table 3): 4; Therapeutic Index = hemolytic activity/antibacterial activity ([3]; S. epidermidis, Table 3): 8.3; Therapeutic Index = hemolytic activity/antibacterial activity ([4]; E. coli UB1005, Table 2): 1.4; Therapeutic Index = hemolytic activity/antibacterial activity ([5]; C. Albicans, Table 3): 3.1; Therapeutic Index = hemolytic activity/antibacterial activity ([6]; C. xeroses, Table 3): 16; Therapeutic Index = hemolytic activity/antibacterial activity ([7]; E. faecalis, Table 3): 4; Therapeutic Index = hemolytic activity/antibacterial activity ([8]; E. coli DC2, Table 2): 4; Therapeutic Index = hemolytic activity/antibacterial activity ([9]; S. aureus K147, Table 3): 8.3; Therapeutic Index = hemolytic activity/antibacterial activity ([10]; S. aureus SAP0017, Table 3): 8.3; Therapeutic Index = hemolytic activity/antibacterial activity ([11]; S. typhinurium C587, Table 2): 0.7; Therapeutic Index = hemolytic activity/antibacterial activity ([12]; S. typhinurium C610, Table 2): 1.4; Therapeutic Index = hemolytic activity/antibacterial activity ([13]; P. aeruginosa H188, Table 2): 2 |
| CC(C)[C@@H]1NC(=O)[C@H](CCCCN)NC(=O)[C@H](C)NC(=O)[C@@H]2CCCN2C(=O)[C@@H](Cc2ccc(O)cc2)NC(=O)[C@H](C(C)C)NC(=O)[C@@H](CCCCN)NC(=O)[C@H](C)NC(=O)[C@H](CCCCN)NC(=O)[C@H](C(C)C)NC(=O)[C@@H]2CCCN2C(=O)[C@@H](Cc2ccc(O)cc2)NC(=O)[C@H](C)NC(=O)[C@H](CCCCN)NC1=O [L3/A3] | 8 | 4 | 4 | 8 | 4 | 16 | 4 | 8 | 4 | 4 | 4 | 16 | 21 |  |
